For at least one entry, the source does not settle the construct or the ends of the probe. A weaker result is weaker than the reference pair of the same experiment. At least one verdict was read from the data and is not stated in words by the source.
How the values were obtained:
[1] = biological target: SerRS delta TBD (Homo sapiens) (UniProt P49591); test: EMSA; conditions: dramatically weakened or abolished; EMSA: 20 mM Tris-HCl pH 8.0, 60 mM KCl, 5 mM MgCl2, 0.1 mg/ml BSA, 10 ng/ul poly(dG-dC), 1 mM DTT, 30 min, room temperature; recombinant protein; label: 5' 32P; letters put together from the description
[2] = tested on: SerRS delta UNE-S (Homo sapiens); test: EMSA; conditions: dramatically weakened or abolished; EMSA: 20 mM Tris-HCl pH 8.0, 60 mM KCl, 5 mM MgCl2, 0.1 mg/ml BSA, 10 ng/ul poly(dG-dC), 1 mM DTT, 30 min, room temperature; recombinant protein; label: 5' 32P; letters put together from the description

By UniProt entry, the sequences of proteins in these tests, tags left out. Where a name states a change or a piece, a line headed by the entry shows the natural chain unless it says otherwise.
UniProt P49591: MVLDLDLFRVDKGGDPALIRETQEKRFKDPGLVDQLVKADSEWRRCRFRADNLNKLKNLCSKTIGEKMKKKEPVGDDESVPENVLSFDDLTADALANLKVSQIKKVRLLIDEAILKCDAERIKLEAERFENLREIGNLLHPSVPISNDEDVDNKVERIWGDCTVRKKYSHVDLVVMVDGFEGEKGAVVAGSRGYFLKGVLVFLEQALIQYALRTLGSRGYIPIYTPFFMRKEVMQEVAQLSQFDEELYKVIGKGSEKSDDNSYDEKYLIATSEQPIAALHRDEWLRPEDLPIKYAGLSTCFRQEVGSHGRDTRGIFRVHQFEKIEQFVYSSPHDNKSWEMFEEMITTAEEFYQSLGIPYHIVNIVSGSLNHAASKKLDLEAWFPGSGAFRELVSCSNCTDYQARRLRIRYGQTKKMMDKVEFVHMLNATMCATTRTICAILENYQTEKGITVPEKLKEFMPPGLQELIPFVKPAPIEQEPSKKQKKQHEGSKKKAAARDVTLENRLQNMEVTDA

GGCGGGGCGGAGCCATGCGCCCCCCCC (double strand) [VEGFA promoter 27-bp (-62 to -36)]
binding result [1]: binds more weakly | binding result [2]: binds more weakly

Source: PMC4057782
